# PubChem BioAssay AID1259315 – Drosophila RNAi Screening Center | 2017
# Screen: 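Fly genes changing cellular ATP after a day in high zinc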 (primary screen)
# Cell system: Drosophila S2R+ cells
# Reagent: long dsRNA against Drosophila genes
# Time to read-out: 5 days (4 days knock-down, then 1 day with zinc)
# Conditions: zinc chloride added to 15 mM final for 1 day
# Measurement: 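ATP luminescence reflecting cell viability after 4 days of knock-down then 1 day with 15 mM zinc chloride; mean z-score of two replicate plates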
# Reading the numbers: mean ATP z-score: higher = more ATP, more cells surviving zinc
# Call rule: 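a reagent is active if its z-score lies beyond 1.5 in either direction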
# The deposit covers 418 reagents; below is a random part of them. 17 of them (4.1%) count as active. 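z-scores average two replicate plates; all hits raised ATP and none lowered it.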 No sequences are given here. The record does not give: the amount of reagent.
gene,DRSC id,mean ATP z-score,Outcome
CG8646,DRSC07230,-0.371,inactive
VhaAC39-2,DRSC15609,-0.2,inactive
VhaAC39-2,DRSC34799,-0.182,inactive
CRAT,DRSC12523,-0.323,inactive
CRAT,DRSC29377,-0.462,inactive
ACOX1,DRSC05941,0.307,inactive
ACOX1,DRSC24604,-0.106,inactive
AP-1-2beta,DRSC19336,-0.215,inactive
AP-1-2beta,DRSC23868,-0.253,inactive
AP-1-2beta,DRSC31080,0.00474,inactive
Hexo1,DRSC08663,-0.278,inactive
CG5731,DRSC02883,-0.111,inactive
CG5731,DRSC25969,-0.425,inactive
CG5731,DRSC37705,-0.373,inactive
CG12268,DRSC14491,0.346,inactive
CG12268,DRSC28755,-0.118,inactive
Coprox,DRSC01996,-0.124,inactive
Coprox,DRSC28744,-0.243,inactive
CG6638,DRSC10680,-0.236,inactive
CG6638,DRSC24246,-0.307,inactive
Npc1a,DRSC03378,0.0752,inactive
Npc1a,DRSC33330,-0.286,inactive
Npc1a,DRSC39428,-0.261,inactive
Acox57D-d,DRSC04561,-0.0537,inactive
Acox57D-d,DRSC30108,1.75,active
Vha14-2,DRSC12145,-0.0402,inactive
Parp1,DRSC07725,-0.318,inactive
Parp1,DRSC07778,0.00234,inactive
Parp1,DRSC07780,-0.0693,inactive
Pex19,DRSC02839,0.116,inactive
Wdr24,DRSC14151,0.228,inactive
Wdr24,DRSC36452,-0.324,inactive
Vha100-1,DRSC26617,4.16,active
Vha100-1,DRSC38989,0.0614,inactive
Vha100-1,DRSC39862,0.0972,inactive
CtsF,DRSC12056,-0.142,inactive
CtsF,DRSC12195,0.192,inactive
CtsF,DRSC12196,-0.227,inactive
CG1827,DRSC06719,-0.202,inactive
Naglu,DRSC02267,-0.0463,inactive
Naglu,DRSC33899,-0.0384,inactive
Acsf2,DRSC02172,0.00896,inactive
Acsf2,DRSC27832,-0.419,inactive
Cat,DRSC11110,-0.177,inactive
Cat,DRSC24077,-0.262,inactive
Cat,DRSC38942,-0.245,inactive
